# In the supplement of paper PMC12823440, “Inhibitors supercharge kinase turnover through native proteolytic circuits” (Nature, 2025):
# Sequences of proteins named here, by UniProt entry; tags and fusion partners are left off. A change or cut given only in a name is not applied to a line headed by its entry.
# UniProt Q06187: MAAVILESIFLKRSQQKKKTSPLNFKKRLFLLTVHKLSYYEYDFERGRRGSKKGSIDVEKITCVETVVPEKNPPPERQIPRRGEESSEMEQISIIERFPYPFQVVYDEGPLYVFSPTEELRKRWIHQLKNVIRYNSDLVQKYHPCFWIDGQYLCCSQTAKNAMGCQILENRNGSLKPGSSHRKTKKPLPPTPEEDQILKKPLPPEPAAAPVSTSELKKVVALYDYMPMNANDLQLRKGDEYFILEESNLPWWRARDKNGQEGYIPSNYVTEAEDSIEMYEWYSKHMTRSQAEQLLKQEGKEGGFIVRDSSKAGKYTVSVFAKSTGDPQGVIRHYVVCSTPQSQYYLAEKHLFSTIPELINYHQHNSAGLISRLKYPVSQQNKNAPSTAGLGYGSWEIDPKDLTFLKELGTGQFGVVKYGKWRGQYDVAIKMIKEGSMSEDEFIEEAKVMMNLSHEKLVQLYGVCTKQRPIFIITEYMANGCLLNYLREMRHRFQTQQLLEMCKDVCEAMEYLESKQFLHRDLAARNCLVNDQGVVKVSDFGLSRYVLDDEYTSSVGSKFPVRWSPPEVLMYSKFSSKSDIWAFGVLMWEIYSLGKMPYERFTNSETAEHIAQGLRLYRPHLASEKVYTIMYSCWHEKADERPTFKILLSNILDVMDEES
# UniProt Q15131: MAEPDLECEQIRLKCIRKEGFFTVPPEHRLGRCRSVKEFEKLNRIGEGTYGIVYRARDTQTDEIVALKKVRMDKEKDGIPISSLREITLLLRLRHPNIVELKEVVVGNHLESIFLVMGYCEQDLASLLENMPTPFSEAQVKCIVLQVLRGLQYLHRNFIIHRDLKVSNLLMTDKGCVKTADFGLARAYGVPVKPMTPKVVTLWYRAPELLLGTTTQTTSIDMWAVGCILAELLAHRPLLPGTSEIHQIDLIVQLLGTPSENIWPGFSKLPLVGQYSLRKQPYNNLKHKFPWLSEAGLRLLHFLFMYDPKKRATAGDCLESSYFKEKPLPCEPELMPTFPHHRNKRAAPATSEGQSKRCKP
# UniProt Q00526: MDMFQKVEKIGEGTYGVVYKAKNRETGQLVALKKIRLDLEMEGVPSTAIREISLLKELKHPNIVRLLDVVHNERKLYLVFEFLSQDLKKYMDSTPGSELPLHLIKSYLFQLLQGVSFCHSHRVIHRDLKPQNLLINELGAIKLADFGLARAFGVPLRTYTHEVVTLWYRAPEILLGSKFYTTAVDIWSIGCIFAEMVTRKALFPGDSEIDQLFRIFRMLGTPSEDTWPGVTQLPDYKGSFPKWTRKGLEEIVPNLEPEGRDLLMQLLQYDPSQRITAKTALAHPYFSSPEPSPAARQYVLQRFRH
# UniProt P11802: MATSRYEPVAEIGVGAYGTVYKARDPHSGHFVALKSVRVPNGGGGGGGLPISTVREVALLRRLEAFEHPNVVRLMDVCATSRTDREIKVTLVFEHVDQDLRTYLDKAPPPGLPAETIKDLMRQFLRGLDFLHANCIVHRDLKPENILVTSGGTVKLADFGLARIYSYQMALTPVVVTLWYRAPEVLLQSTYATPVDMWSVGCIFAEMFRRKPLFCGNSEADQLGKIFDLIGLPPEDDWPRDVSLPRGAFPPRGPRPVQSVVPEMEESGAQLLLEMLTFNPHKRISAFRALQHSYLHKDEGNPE
# UniProt Q00535, whole entry, looked up: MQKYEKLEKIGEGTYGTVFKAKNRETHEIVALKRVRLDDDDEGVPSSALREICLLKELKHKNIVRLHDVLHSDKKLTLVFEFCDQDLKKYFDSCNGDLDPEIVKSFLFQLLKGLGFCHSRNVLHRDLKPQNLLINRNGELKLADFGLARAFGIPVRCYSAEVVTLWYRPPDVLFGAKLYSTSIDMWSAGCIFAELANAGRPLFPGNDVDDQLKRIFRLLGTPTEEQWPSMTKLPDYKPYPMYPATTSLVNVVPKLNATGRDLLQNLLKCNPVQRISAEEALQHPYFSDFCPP
# UniProt Q00534, whole entry: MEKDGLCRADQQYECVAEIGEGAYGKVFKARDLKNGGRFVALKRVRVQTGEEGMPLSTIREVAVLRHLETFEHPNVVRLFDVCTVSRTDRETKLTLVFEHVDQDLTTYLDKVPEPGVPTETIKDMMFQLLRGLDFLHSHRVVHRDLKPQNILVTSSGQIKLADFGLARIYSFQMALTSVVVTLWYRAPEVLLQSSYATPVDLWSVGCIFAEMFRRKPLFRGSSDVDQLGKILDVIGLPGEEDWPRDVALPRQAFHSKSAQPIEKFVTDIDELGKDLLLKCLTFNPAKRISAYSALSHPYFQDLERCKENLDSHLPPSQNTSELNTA
# UniProt P50613: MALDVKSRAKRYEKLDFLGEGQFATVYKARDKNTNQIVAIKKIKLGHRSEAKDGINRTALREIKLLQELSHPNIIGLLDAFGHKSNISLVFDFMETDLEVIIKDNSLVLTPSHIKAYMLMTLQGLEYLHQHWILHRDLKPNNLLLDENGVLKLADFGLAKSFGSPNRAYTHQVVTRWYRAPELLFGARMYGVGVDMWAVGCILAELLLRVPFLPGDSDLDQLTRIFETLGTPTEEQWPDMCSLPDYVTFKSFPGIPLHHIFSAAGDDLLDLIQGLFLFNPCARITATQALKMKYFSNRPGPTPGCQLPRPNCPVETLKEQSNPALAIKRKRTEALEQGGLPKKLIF
# UniProt P50750, whole entry: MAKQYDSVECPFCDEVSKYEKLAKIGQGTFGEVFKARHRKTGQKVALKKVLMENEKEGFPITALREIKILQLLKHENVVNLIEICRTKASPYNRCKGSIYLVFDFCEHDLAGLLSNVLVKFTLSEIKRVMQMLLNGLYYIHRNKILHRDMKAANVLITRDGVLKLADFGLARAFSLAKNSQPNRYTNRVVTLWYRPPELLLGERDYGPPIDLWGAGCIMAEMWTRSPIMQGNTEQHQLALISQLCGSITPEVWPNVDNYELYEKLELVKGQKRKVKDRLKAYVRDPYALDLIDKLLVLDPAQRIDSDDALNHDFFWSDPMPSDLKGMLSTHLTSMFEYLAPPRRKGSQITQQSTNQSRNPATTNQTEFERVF
# UniProt O96017, whole entry: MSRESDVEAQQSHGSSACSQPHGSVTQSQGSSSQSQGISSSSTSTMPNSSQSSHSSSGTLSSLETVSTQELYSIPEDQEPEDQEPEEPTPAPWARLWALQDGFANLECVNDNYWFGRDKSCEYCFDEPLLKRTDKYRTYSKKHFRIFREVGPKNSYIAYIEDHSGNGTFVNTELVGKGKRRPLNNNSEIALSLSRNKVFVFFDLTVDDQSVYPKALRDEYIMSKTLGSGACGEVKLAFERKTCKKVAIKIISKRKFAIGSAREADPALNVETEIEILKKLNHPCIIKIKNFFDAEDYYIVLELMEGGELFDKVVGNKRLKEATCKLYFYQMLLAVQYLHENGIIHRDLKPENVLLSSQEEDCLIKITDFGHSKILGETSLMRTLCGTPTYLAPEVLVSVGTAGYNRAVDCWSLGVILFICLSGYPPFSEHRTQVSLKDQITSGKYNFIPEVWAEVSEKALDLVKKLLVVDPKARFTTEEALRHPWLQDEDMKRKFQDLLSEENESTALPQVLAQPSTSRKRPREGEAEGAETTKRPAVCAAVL
# UniProt P07333, whole entry: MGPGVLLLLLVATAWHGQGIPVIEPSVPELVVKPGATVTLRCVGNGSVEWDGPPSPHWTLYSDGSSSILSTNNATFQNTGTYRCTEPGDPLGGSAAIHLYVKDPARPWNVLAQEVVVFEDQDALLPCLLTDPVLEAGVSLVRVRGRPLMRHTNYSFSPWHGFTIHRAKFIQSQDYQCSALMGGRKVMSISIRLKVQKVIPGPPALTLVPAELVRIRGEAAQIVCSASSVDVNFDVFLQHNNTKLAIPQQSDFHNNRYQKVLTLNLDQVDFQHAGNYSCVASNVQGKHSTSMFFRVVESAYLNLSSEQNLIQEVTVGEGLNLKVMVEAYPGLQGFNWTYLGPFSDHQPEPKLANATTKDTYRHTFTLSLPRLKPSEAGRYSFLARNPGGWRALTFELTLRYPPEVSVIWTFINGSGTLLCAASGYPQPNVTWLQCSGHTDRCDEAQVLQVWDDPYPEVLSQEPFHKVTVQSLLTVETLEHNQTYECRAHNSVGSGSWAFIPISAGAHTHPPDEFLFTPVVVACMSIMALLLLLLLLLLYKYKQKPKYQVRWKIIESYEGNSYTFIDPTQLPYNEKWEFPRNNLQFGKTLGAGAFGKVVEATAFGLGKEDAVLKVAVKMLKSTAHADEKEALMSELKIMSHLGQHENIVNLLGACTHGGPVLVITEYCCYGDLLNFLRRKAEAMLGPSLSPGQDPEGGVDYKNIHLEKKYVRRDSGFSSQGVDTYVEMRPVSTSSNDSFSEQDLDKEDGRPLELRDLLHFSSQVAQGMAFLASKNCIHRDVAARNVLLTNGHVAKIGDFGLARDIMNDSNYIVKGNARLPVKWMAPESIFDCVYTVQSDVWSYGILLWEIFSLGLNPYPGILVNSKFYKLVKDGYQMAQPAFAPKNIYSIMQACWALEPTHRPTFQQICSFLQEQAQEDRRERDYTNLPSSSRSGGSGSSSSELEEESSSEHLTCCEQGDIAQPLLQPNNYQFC
# UniProt P41240: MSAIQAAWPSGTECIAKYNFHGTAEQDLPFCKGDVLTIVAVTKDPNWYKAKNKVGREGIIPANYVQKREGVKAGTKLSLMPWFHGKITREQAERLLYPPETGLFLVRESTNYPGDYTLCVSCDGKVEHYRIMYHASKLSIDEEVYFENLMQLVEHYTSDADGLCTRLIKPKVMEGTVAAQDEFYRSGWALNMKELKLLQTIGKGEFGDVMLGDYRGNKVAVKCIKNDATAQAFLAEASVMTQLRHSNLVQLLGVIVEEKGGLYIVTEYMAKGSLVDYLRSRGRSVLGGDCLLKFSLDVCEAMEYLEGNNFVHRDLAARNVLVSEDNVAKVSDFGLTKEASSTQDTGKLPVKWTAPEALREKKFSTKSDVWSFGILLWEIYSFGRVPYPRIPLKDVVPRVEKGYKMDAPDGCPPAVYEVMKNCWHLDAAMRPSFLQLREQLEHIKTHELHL
# UniProt P48729: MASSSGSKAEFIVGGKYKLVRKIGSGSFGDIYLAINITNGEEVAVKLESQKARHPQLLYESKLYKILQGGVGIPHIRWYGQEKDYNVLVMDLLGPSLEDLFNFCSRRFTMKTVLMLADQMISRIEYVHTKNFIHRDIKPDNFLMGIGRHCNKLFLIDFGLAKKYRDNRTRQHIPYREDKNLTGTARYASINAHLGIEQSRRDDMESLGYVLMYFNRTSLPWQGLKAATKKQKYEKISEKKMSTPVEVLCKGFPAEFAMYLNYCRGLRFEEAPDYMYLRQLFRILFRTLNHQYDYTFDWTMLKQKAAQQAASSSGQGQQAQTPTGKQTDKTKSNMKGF
# UniProt P48730: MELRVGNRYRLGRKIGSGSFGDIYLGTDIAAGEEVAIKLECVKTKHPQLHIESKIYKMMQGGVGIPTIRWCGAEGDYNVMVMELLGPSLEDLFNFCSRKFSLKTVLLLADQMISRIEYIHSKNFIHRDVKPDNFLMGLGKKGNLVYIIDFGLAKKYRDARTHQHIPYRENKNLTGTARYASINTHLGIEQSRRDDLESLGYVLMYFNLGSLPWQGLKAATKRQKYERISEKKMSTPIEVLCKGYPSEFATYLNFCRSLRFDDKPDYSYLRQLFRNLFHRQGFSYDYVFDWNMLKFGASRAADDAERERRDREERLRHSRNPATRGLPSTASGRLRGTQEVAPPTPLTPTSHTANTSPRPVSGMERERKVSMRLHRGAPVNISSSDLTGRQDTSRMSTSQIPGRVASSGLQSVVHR
# UniProt Q08345: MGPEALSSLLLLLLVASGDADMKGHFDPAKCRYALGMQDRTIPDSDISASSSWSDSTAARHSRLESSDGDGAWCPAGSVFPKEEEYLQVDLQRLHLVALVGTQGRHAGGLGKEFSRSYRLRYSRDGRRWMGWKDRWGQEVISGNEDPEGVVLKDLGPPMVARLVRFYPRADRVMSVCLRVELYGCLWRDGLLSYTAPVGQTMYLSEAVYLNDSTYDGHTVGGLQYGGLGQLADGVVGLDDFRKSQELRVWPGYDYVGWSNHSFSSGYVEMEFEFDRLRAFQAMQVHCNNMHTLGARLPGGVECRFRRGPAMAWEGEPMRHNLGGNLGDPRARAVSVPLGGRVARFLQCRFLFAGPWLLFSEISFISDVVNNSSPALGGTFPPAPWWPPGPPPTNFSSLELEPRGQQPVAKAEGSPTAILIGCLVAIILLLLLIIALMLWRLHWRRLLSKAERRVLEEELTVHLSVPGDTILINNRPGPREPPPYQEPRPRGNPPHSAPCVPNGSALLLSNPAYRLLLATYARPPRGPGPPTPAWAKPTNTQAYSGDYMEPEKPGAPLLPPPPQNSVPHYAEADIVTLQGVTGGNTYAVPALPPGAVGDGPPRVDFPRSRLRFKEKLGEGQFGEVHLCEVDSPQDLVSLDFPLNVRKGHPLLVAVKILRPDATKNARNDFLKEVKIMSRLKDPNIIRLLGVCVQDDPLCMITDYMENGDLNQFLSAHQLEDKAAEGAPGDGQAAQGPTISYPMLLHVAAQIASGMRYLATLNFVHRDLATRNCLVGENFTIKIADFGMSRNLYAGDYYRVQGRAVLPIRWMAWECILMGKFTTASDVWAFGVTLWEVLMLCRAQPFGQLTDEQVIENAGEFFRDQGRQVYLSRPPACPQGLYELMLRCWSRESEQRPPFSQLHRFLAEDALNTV
# Where a name gives a salt, the structure may show the parent alone. This is one part of the list. The calls rarely recur for the same compound in another form.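 Kinases, fused to nanoluciferase, were expressed in K562 cells; luminescence was measured every 4 h from 2 to 18 h as percent of control (DMSO = 100%, positive control = 0%). A time point is decreased if signal falls significantly (2 sigma). Hits were called by the authors by a rule that is not shown; the count of time points alone does not decide it.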
# Key:
# Test in all cases: kinase-Nluc reporter destabilization hit call (1 = scored as downregulated) (binary); higher = compound decreases kinase abundance
# Conditions in all cases: K562; 2-18 h
# [1] = system: BRAF_V600E
# [2] = target: BTK (UniProt Q06187)
# [3] = target: CAMK2A (UniProt Q9UQM7)
# [4] = target: CAMK2G (UniProt Q13555)
# [5] = target: CDK10 (UniProt Q15131)
# [6] = target: CDK2 (UniProt P24941)
# [7] = target: CDK3 (UniProt Q00526)
# [8] = target: CDK4 (UniProt P11802)
# [9] = target: CDK5 (UniProt Q00535)
# [10] = target: CDK6 (UniProt Q00534)
# [11] = target: CDK7 (UniProt P50613)
# [12] = target: CDK9 (UniProt P50750)
# [13] = target: CHEK2 (UniProt O96017)
# [14] = target: CSF1R (UniProt P07333)
# [15] = target: CSK (UniProt P41240)
# [16] = target: CSNK1A1 (UniProt P48729)
# [17] = target: CSNK1D (UniProt P48730)
# [18] = target: DDR1 (UniProt Q08345)
# [19] = target: DYRK1B (UniProt Q9Y463)
# [20] = target: DYRK2 (UniProt Q92630)
Structure (SMILES),kinase-Nluc reporter destabilization hit call [1],kinase-Nluc reporter destabilization hit call [2],kinase-Nluc reporter destabilization hit call [3],kinase-Nluc reporter destabilization hit call [4],kinase-Nluc reporter destabilization hit call [5],kinase-Nluc reporter destabilization hit call [6],kinase-Nluc reporter destabilization hit call [7],kinase-Nluc reporter destabilization hit call [8],kinase-Nluc reporter destabilization hit call [9],kinase-Nluc reporter destabilization hit call [10],kinase-Nluc reporter destabilization hit call [11],kinase-Nluc reporter destabilization hit call [12],kinase-Nluc reporter destabilization hit call [13],kinase-Nluc reporter destabilization hit call [14],kinase-Nluc reporter destabilization hit call [15],kinase-Nluc reporter destabilization hit call [16],kinase-Nluc reporter destabilization hit call [17],kinase-Nluc reporter destabilization hit call [18],kinase-Nluc reporter destabilization hit call [19],kinase-Nluc reporter destabilization hit call [20]
Cn1cc(C2=C(c3cccc(N)c3)C(=O)NC2=O)c2ccccc21 (10 µM),inactive: 0,inactive: 0,inactive: 0,inactive: 0,inactive: 0,inactive: 0,inactive: 0,inactive: 0,inactive: 0,inactive: 0,inactive: 0,inactive: 0,inactive: 0,inactive: 0,inactive: 0,inactive: 0,inactive: 0,inactive: 0,inactive: 0,inactive: 0
CC1(C)Cc2c(sc(NC(=S)NC(=O)c3ccccc3)c2C(=O)O)CO1 (10 µM),inactive: 0,inactive: 0,inactive: 0,inactive: 0,inactive: 0,inactive: 0,inactive: 0,inactive: 0,inactive: 0,inactive: 0,inactive: 0,inactive: 0,inactive: 0,inactive: 0,inactive: 0,inactive: 0,inactive: 0,inactive: 0,inactive: 0,inactive: 0
CN(C)c1nc2c(Br)c(Br)c(Br)c(Br)c2[nH]1 (10 µM),inactive: 0,inactive: 0,inactive: 0,inactive: 0,inactive: 0,inactive: 0,inactive: 0,inactive: 0,inactive: 0,inactive: 0,inactive: 0,inactive: 0,inactive: 0,inactive: 0,inactive: 0,inactive: 0,inactive: 0,inactive: 0,inactive: 0,inactive: 0
O=[N+]([O-])c1ccc(Nc2nc(N3CCOCC3)nc(N3CCOCC3)n2)cc1 (10 µM),inactive: 0,inactive: 0,inactive: 0,inactive: 0,inactive: 0,inactive: 0,inactive: 0,inactive: 0,inactive: 0,inactive: 0,inactive: 0,inactive: 0,inactive: 0,inactive: 0,inactive: 0,inactive: 0,inactive: 0,inactive: 0,inactive: 0,inactive: 0
Cn1ncc2cc(-c3cnc(N)c(Cl)c3N3CCC4(CCNC4=O)CC3)ccc21 (10 µM),inactive: 0,inactive: 0,inactive: 0,inactive: 0,inactive: 0,inactive: 0,inactive: 0,inactive: 0,inactive: 0,inactive: 0,inactive: 0,inactive: 0,inactive: 0,inactive: 0,inactive: 0,inactive: 0,inactive: 0,inactive: 0,inactive: 0,inactive: 0
Cc1cccc2c3c(ccc12)C(=O)C1=C(OCC1C)C3=O (stereo not given) [Dihydroisotanshinone I] (2.5 µM),inactive: 0,inactive: 0,inactive: 0,inactive: 0,inactive: 0,inactive: 0,inactive: 0,inactive: 0,inactive: 0,inactive: 0,inactive: 0,inactive: 0,inactive: 0,inactive: 0,inactive: 0,inactive: 0,inactive: 0,inactive: 0,inactive: 0,inactive: 0
CN1CCC(c2ccccc2CC(C)(C)Nc2nc(N3CCOCC3)nc(-n3c(C(F)F)nc4ccccc43)n2)CC1 [Zandelisib] (10 µM),inactive: 0,inactive: 0,inactive: 0,inactive: 0,inactive: 0,inactive: 0,inactive: 0,inactive: 0,inactive: 0,inactive: 0,inactive: 0,inactive: 0,inactive: 0,inactive: 0,inactive: 0,inactive: 0,inactive: 0,inactive: 0,inactive: 0,inactive: 0
CC(C)C[C@@H](C(=O)Nc1ccn(C[C@@H](O)CO)n1)N1CC(Oc2ccccc2Cl)=CC1=O [Dorzagliatin] (10 µM),inactive: 0,inactive: 0,inactive: 0,inactive: 0,inactive: 0,inactive: 0,inactive: 0,inactive: 0,inactive: 0,inactive: 0,inactive: 0,inactive: 0,inactive: 0,inactive: 0,inactive: 0,inactive: 0,inactive: 0,inactive: 0,inactive: 0,inactive: 0
FC(F)(F)c1ccc(/C=C/c2nc(COc3ccc(CCCCn4ccnn4)cc3)co2)cc1 [Mubritinib] (10 µM),inactive: 0,inactive: 0,inactive: 0,inactive: 0,inactive: 0,inactive: 0,inactive: 0,inactive: 0,inactive: 0,inactive: 0,inactive: 0,inactive: 0,inactive: 0,inactive: 0,inactive: 0,inactive: 0,inactive: 0,inactive: 0,inactive: 0,inactive: 0
CCOC(=O)N1C/C(=C/c2ccccc2F)C(=O)/C(=C\c2ccccc2F)C1 (2.5 µM),inactive: 0,inactive: 0,inactive: 0,inactive: 0,inactive: 0,inactive: 0,inactive: 0,inactive: 0,inactive: 0,inactive: 0,inactive: 0,inactive: 0,inactive: 0,inactive: 0,inactive: 0,inactive: 0,inactive: 0,inactive: 0,inactive: 0,inactive: 0
COc1nn(C)cc1Nc1nccc(-c2c[nH]c3c(NC(=O)[C@@H](C)N4CCN(C)CC4)cccc23)n1 (10 µM),inactive: 0,inactive: 0,inactive: 0,inactive: 0,inactive: 0,inactive: 0,inactive: 0,inactive: 0,inactive: 0,inactive: 0,inactive: 0,inactive: 0,inactive: 0,inactive: 0,inactive: 0,inactive: 0,inactive: 0,inactive: 0,inactive: 0,inactive: 0
COc1cc2ncnc(Nc3ccccc3)c2cc1OC (10 µM),inactive: 0,inactive: 0,inactive: 0,inactive: 0,inactive: 0,inactive: 0,inactive: 0,inactive: 0,inactive: 0,inactive: 0,inactive: 0,inactive: 0,inactive: 0,inactive: 0,inactive: 0,inactive: 0,inactive: 0,inactive: 0,inactive: 0,inactive: 0
COc1ccccc1C(=O)/C=C/c1ccccc1C(=O)O (10 µM),inactive: 0,inactive: 0,inactive: 0,inactive: 0,inactive: 0,inactive: 0,inactive: 0,inactive: 0,inactive: 0,inactive: 0,inactive: 0,inactive: 0,inactive: 0,inactive: 0,inactive: 0,inactive: 0,inactive: 0,inactive: 0,inactive: 0,inactive: 0
COc1ccc(N=Nc2c(N)n[nH]c2N)cc1 (10 µM),inactive: 0,inactive: 0,inactive: 0,inactive: 0,inactive: 0,inactive: 0,inactive: 0,inactive: 0,inactive: 0,inactive: 0,inactive: 0,inactive: 0,inactive: 0,inactive: 0,inactive: 0,inactive: 0,inactive: 0,inactive: 0,inactive: 0,inactive: 0
COc1cc(/C=C/C(=O)N2CCC=CC2=O)cc(OC)c1OC [Piperlongumine] (2.5 µM),active: 1,inactive: 0,inactive: 0,inactive: 0,inactive: 0,inactive: 0,inactive: 0,inactive: 0,inactive: 0,inactive: 0,inactive: 0,inactive: 0,inactive: 0,inactive: 0,inactive: 0,inactive: 0,inactive: 0,inactive: 0,inactive: 0,inactive: 0
CN1CC[C@@H](c2c(O)cc(O)c3c(=O)cc(-c4ccc(C(F)(F)F)cc4Cl)oc23)[C@@H]1CO [Voruciclib (hydrochloride)] (10 µM),inactive: 0,inactive: 0,inactive: 0,inactive: 0,inactive: 0,inactive: 0,inactive: 0,inactive: 0,inactive: 0,inactive: 0,inactive: 0,inactive: 0,inactive: 0,inactive: 0,inactive: 0,inactive: 0,inactive: 0,inactive: 0,inactive: 0,inactive: 0
C[C@H](Nc1ncnc2[nH]cnc12)c1cc2ccc(F)cc2nc1-c1ccccn1 (10 µM),inactive: 0,inactive: 0,inactive: 0,inactive: 0,inactive: 0,inactive: 0,inactive: 0,inactive: 0,inactive: 0,inactive: 0,inactive: 0,inactive: 0,inactive: 0,inactive: 0,inactive: 0,inactive: 0,inactive: 0,inactive: 0,inactive: 0,inactive: 0
Oc1cc(O)c2c(c1)OC1(c3ccc(O)c(O)c3)Oc3cc(O)c4c(c3C2C1O)OC(c1ccc(O)c(O)c1)C(O)C4 (stereo not given) [Procyanidin A1] (10 µM),inactive: 0,inactive: 0,inactive: 0,inactive: 0,inactive: 0,inactive: 0,inactive: 0,inactive: 0,inactive: 0,inactive: 0,inactive: 0,inactive: 0,inactive: 0,inactive: 0,inactive: 0,inactive: 0,inactive: 0,inactive: 0,inactive: 0,inactive: 0

# Shown bar-delimited: entries from further up
Structure (SMILES) | kinase-Nluc reporter destabilization hit call [1] | kinase-Nluc reporter destabilization hit call [2] | kinase-Nluc reporter destabilization hit call [3] | kinase-Nluc reporter destabilization hit call [4] | kinase-Nluc reporter destabilization hit call [5] | kinase-Nluc reporter destabilization hit call [6] | kinase-Nluc reporter destabilization hit call [7] | kinase-Nluc reporter destabilization hit call [8] | kinase-Nluc reporter destabilization hit call [9] | kinase-Nluc reporter destabilization hit call [10] | kinase-Nluc reporter destabilization hit call [11] | kinase-Nluc reporter destabilization hit call [12] | kinase-Nluc reporter destabilization hit call [13] | kinase-Nluc reporter destabilization hit call [14] | kinase-Nluc reporter destabilization hit call [15] | kinase-Nluc reporter destabilization hit call [16] | kinase-Nluc reporter destabilization hit call [17] | kinase-Nluc reporter destabilization hit call [18] | kinase-Nluc reporter destabilization hit call [19] | kinase-Nluc reporter destabilization hit call [20]
O=[N+]([O-])c1ccc(Nc2nc(N3CCOCC3)nc(N3CCOCC3)n2)cc1 (10 µM) | inactive: 0 | inactive: 0 | inactive: 0 | inactive: 0 | inactive: 0 | inactive: 0 | inactive: 0 | inactive: 0 | inactive: 0 | inactive: 0 | inactive: 0 | inactive: 0 | inactive: 0 | inactive: 0 | inactive: 0 | inactive: 0 | inactive: 0 | inactive: 0 | inactive: 0 | inactive: 0
Cn1ncc2cc(-c3cnc(N)c(Cl)c3N3CCC4(CCNC4=O)CC3)ccc21 (10 µM) | inactive: 0 | inactive: 0 | inactive: 0 | inactive: 0 | inactive: 0 | inactive: 0 | inactive: 0 | inactive: 0 | inactive: 0 | inactive: 0 | inactive: 0 | inactive: 0 | inactive: 0 | inactive: 0 | inactive: 0 | inactive: 0 | inactive: 0 | inactive: 0 | inactive: 0 | inactive: 0
